Values from PubChem BioAssay AID1259254 (NCATS, 2017).
In all, the deposit lists about 59,000 reagents; this is an unselected part. Over the whole deposit, about 1,550 (2.6%) are marked active. 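G2 share is only a proxy for re-replication; each gene was hit by three separate siRNAs, and active genes were retested.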 A number with no mark means an inactive call. Not all columns of the deposit are shown. No sequences are given here. The record does not give: the amount of reagent.

Screen: 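Gene knock-downs that lead to re-replication, shown by excess G2 DNA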 (primary screen)
Cells: human HCT116 colorectal cancer cells
Reagents: single siRNA against human genes
Timing: 3 days
Measured: 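Nuclei stained with Hoechst and imaged; cell-cycle phase assigned by DNA content; G2 share scaled per plate, non-targeting siRNA 0%, GMNN siRNA 100%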
Direction: G2 robust z-score: higher = more G2 cells, more excess DNA replication
Active means: 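An siRNA counts as active if its G2 robust z-score lies at least 5 MADs above the screen median; here such calls match roughly 38% of GMNN control or more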

Silencing of RFX1 (regulatory factor X1) [SID160715840] came out at: G2 robust z-score 1.28.
Knock-down of RFX1 (regulatory factor X1) [SID160715841] came out at: G2 robust z-score -0.501.
For RFX1 (regulatory factor X1) [SID160715842] the deposit lists G2 robust z-score 0.31.
Silencing of PCDH11Y (protocadherin 11 Y-linked) [SID160724588] resulted in: G2 robust z-score -0.442.
PCDH11Y (protocadherin 11 Y-linked) [SID160751084] gave G2 robust z-score 1.02.
PCDH11Y (protocadherin 11 Y-linked) [SID160751085] scored G2 robust z-score -0.179.
For ARL14EP (ARF like GTPase 14 effector protein) [SID160755818] the deposit lists G2 robust z-score 0.353.
With knock-down of ARL14EP (ARF like GTPase 14 effector protein) [SID160755819] the results were G2 robust z-score -0.713.
ARL14EP (ARF like GTPase 14 effector protein) [SID160755820] showed G2 robust z-score -0.56.
After knock-down of RBM45 (RNA binding motif protein 45) [SID160756899], the record shows G2 robust z-score 2.65.
Depletion of RBM45 (RNA binding motif protein 45) [SID160756900] gave: G2 robust z-score -0.328.
After knock-down of RBM45 (RNA binding motif protein 45) [SID160756901] the results were G2 robust z-score 2.13.
Against DLST (dihydrolipoamide S-succinyltransferase) [SID160754673], the entry reads G2 robust z-score -0.294.
DLST (dihydrolipoamide S-succinyltransferase) [SID160754683] scored G2 robust z-score 0.357.
DLST (dihydrolipoamide S-succinyltransferase) [SID160754694] scored G2 robust z-score -0.522.
FABP5P1 (fatty acid binding protein 5 pseudogene 1) [SID160733196] gave G2 robust z-score 1.77.
Silencing of FABP5P1 (fatty acid binding protein 5 pseudogene 1) [SID160765739] came out at: G2 robust z-score 1.44.
With knock-down of FABP5P1 (fatty acid binding protein 5 pseudogene 1) [SID160765740], the screen gave G2 robust z-score -0.854.
With knock-down of TROAP (trophinin associated protein) [SID160724151], the screen gave G2 robust z-score -1.11.
For TROAP (trophinin associated protein) [SID160724159], the entry reads G2 robust z-score 1.14.
Against TROAP (trophinin associated protein) [SID160724166] the deposit lists G2 robust z-score 3.38.
SPATA31E1 (SPATA31 subfamily E member 1) [SID160763817] scored G2 robust z-score 0.845.
Knock-down of SPATA31E1 (SPATA31 subfamily E member 1) [SID160763819] came out at: G2 robust z-score -0.232.
Knock-down of SPATA31E1 (SPATA31 subfamily E member 1) [SID160763820] resulted in: G2 robust z-score -0.266.
